Measurements from publication PMC10951424.
No constants are given. Whether binding was seen depends on the method and setting. In cells and extracts the contact can be indirect. Some entries that bind do so weakly or less than the wild type.

The chains behind the UniProt entries cited, without tags or fusion partners.
UniProt P84022: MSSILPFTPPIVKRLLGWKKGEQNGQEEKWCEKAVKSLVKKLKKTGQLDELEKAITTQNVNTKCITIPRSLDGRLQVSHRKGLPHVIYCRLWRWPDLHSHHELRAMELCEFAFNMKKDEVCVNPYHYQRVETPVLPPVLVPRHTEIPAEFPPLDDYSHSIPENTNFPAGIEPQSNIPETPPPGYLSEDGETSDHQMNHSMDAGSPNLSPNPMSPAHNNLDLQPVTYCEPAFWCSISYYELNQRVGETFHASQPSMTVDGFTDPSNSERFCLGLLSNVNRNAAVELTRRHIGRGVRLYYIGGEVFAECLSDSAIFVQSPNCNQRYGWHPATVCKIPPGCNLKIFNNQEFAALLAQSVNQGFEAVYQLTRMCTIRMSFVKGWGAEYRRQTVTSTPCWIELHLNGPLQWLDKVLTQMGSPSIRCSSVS
UniProt O14744: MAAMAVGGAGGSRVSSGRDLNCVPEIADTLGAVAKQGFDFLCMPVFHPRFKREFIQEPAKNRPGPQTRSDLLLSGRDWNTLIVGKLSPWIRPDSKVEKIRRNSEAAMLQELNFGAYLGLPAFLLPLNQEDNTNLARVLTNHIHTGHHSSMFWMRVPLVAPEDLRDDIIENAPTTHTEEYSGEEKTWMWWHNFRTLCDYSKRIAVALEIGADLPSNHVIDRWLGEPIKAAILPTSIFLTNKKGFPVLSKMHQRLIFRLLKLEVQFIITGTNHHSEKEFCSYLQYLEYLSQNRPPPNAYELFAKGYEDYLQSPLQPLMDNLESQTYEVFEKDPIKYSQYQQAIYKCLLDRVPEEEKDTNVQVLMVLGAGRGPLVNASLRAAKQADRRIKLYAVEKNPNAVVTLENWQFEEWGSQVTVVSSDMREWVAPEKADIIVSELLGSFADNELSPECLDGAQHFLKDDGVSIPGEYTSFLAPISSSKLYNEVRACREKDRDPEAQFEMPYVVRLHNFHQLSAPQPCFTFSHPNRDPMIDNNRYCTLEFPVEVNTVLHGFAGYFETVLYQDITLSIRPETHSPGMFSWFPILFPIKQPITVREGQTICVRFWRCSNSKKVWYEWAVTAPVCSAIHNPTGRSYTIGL

Target: HA-tagged Smad3 (human) (UniProt P84022)
Experiment: co-IP; nuclear extracts of HEK293T cells transfected with Flag-tagged PRMT5 and HA-tagged SMAD3; immunoprecipitation with anti-Flag or anti-HA beads; 4 °C, 2 h; western blot

FLAG-tagged PRMT5 (from UniProt O14744 1-637) (enzyme)
binding: binds
